Literature values, collected in patent US6699656B2, “Treatment and prevention of HIV infection by administration of derivatives of human chorionic gonadotropin” (University of Maryland Biotechnology Institute, priority 1996, dated 2004).
For at least one compound, name, drawing or mass did not settle the structure.

Tested on: HIV-1
Details: literature (Perelson et al.); cited from earlier work

Cc1cn([C@H]2C[C@H](N=[N+]=[N-])[C@@H](CO)O2)c(=O)[nH]c1=O [AZT, azidothymidine]
reduction on viral load: about 1 log
